In the test the test system is L1210 leukemia ip in BDF1 mice, survival T/C. Put plainly: NCI In Vivo Anticancer Drug Screen. Data for tumor model L1210 Leukemia (intraperitoneal) in B6D2F1 (BDF1) mice. The conditions noted are these: T/C endpoint: mean survival time, higher T/C = longer survival.
Where [1] appears, read: dose: 0.8 mg/kg/injection, schedule: Q01DX Z (oral), vehicle: methylcellulose (MC).
The mark [2] stands for this setting: dose: 3.6 mg/kg/injection, schedule: Q01DX Z (oral), vehicle: methylcellulose (MC).
[3] abbreviates: dose: 200.0 mg/kg/injection, schedule: Q04DX003 (ip), vehicle: saline with Tween-80.
Setting [4] is: dose: 400.0 mg/kg/injection, schedule: Q04DX003 (ip), vehicle: saline with Tween-80.
Where [5] appears, read: dose: 400.0 mg/kg/injection, schedule: Q01DX009 (ip), vehicle: Klucel (hydroxypropylcellulose) (HPC).
The mark [6] stands for this setting: dose: 100.0 mg/kg/injection, schedule: Q01DX009 (ip), vehicle: Klucel (hydroxypropylcellulose) (HPC).
Where [7] appears, read: dose: 200.0 mg/kg/injection, schedule: Q01DX009 (ip), vehicle: Klucel (hydroxypropylcellulose) (HPC).
[8] abbreviates: dose: 200.0 mg/kg/injection, schedule: Q01DX009 (ip), vehicle: saline.
Setting [9] is: dose: 400.0 mg/kg/injection, schedule: Q04DX003 (ip), vehicle: saline.

The structures appear in SMILES notation. The list is a part of this screen's results and no random one: it gathers tests that were run many times, whatever their T/C, doses with no T/C, and many T/C values between a quarter and a half above the control. Further doses and runs are listed elsewhere. T/C is the treated group as % of the vehicle group. Some doses have a count of surviving animals in place of a T/C: the source files T/C as zero there, which appears to mark a toxic dose or a test without result, not a measured value. Some doses without a T/C left all or most animals alive at the check, yet need not have been tolerated: the source hardly ever lists a survival T/C far under the control, and the zero likely stands for such cases as well. Survivors were counted at the toxicity check, usually on the fifth day, unless a day is given; later deaths do not show. Schedule codes are those of the source, read here as Q, the interval in days (D) or hours (H), X, the number of doses. Some entries hold several experiments; the results are listed from low to high. Some schedule codes hold Z or #, which are not explained here. Some structures stand for samples that the source files as different forms (salt, stereo form or complex); doses refer to the form tested. For survival time, this PubChem deposit counts one and a half times the control or more as active, and values a quarter to a half above the control carry no call in these data; other NCI protocols may use other cut-offs. Some T/C values carry the count of animals alive at the toxicity check (mostly the fifth day); where none is given, no animal had died by that day.

As for `NC(=O)N(CCCl)N=O`, the T/C is, setting by setting: (dose: 0.12 mg/kg/injection, schedule: Q#A X Z (oral), vehicle: saline) 147 % of control; (dose: 0.2 mg/kg/injection, schedule: Q01DX Z (ip), vehicle: methylcellulose (MC)) 125 and 138 % of control; (dose: 0.4 mg/kg/injection, schedule: Q01DX Z (ip), vehicle: methylcellulose (MC)) 136 % of control; (dose: 0.5 mg/kg/injection, schedule: Q01DX010 (iv), vehicle: saline) 145 % of control; (dose: 0.5 mg/kg/injection, schedule: Q01DX Z (iv), vehicle: saline) 136 % of control; (dose: 0.75 mg/kg/injection, schedule: Q03DX Z (oral), vehicle: saline) 134 % of control. The T/C runs as follows: under setting [1], 143 % of control; (dose: 1.0 mg/kg/injection, schedule: Q01DX Z (iv), vehicle: saline) 131 % of control; (dose: 1.2 mg/kg/injection, schedule: Q01DX001 (ip), vehicle: saline) 144 % of control; (dose: 1.8 mg/kg/injection, schedule: Q01DX001 (ip), vehicle: saline) 139 and 144 % of control; (dose: 3.5 mg/kg/injection, schedule: Q01DX Z (oral), vehicle: carboxymethylcellulose (CMC)) 139 % of control; under setting [2], 145 % of control. Also, the T/C is, setting by setting: (dose: 4.0 mg/kg/injection, schedule: Q01DX009 (ip), vehicle: saline) 133 % of control; (dose: 7.0 mg/kg/injection, schedule: Q01DX Z (oral), vehicle: carboxymethylcellulose (CMC)) 133 % of control; (dose: 7.2 mg/kg/injection, schedule: Q01DX001 (ip), vehicle: saline) 140 % of control; (dose: 900.0 micrograms/kg/injection, schedule: Q01DX Z (sc), vehicle: steroid suspending solution) 149 % of control. Further, the survivor count under setting [1] was 3 of 6; the survivor count (dose: 1.6 mg/kg/injection, schedule: Q01DX Z (oral), vehicle: methylcellulose (MC)) is recorded as 6 of 6; the survivor count (dose: 2.4 mg/kg/injection, schedule: Q01DX Z (oral), vehicle: methylcellulose (MC)) was 3 of 6 and 6 of 6; the survivor count under setting [2] is 6 of 6; the survivor count (dose: 14.0 mg/kg/injection, schedule: Q01DX001 (ip), vehicle: saline) is 10 of 10; the survivor count (dose: 14.4 mg/kg/injection, schedule: Q01DX001 (ip), vehicle: saline) is 9 of 10 and 10 of 10. In addition, the survivor count (dose: 28.8 mg/kg/injection, schedule: Q01DX001 (ip), vehicle: saline) is 4 of 10 and 8 of 10.
With `COc1ccccc1N=Nc1c(O)n(-c2ccccc2C)c(=S)n(-c2ccc(C)cc2)c1=O`, the survivor count (dose: 400.0 mg/kg/injection, schedule: Q01DX001 (ip), vehicle: Klucel (hydroxypropylcellulose) (HPC)) is on record as 3 of 6.
For the compound `Cc1cc([N+](=O)[O-])ccc1S(=O)(=O)F`, the survivor count was 3 of 3 under setting [3] and 2 of 3 under setting [4].
Consider `O/N=C(\c1ccccc1)C1C(/C(=N/O)c2ccccc2)C1c1ccccc1` (configuration not stated), for which, under “dose: 200.0 mg/kg/injection, schedule: Q04DX002 (ip), vehicle: saline with Tween-80”, the survivor count was 3 of 3.
With `CC(C)Nc1ccc(Nc2ccc(NC(C)C)cc2)cc1`, the survivor count runs as follows: (dose: 25.0 mg/kg/injection, schedule: Q04DX003 (ip), vehicle: alcohol) 3 of 6; (dose: 28.0 mg/kg/injection, schedule: Q01DX009 (ip), vehicle: alcohol) 2 of 6; (dose: 40.0 mg/kg/injection, schedule: Q01DX009 (ip), vehicle: alcohol) 1 of 6; (dose: 50.0 mg/kg/injection, schedule: Q04DX003 (ip), vehicle: alcohol) 0 of 6; (dose: 100.0 mg/kg/injection, schedule: Q04DX003 (ip), vehicle: alcohol) 0 of 6; (dose: 200.0 mg/kg/injection, schedule: Q04DX003 (ip), vehicle: alcohol) 0 of 6. The survivor count (dose: 400.0 mg/kg/injection, schedule: Q04DX003 (ip), vehicle: alcohol) is recorded as 0 of 6.
Consider `O=S(=O)(OCC(F)(F)F)c1ccccc1`, for which the survivor count under setting [5] was 0 of 6.
For `CN1CCN(Cc2cc(Cl)c3cccnc3c2O)CC1`, the survivor count (dose: 300.0 mg/kg/injection, schedule: Q01DX001 (ip), vehicle: saline) is given as 1 of 6.
On to `O=C(COCC(=O)N/N=C/c1ccccc1Cl)N/N=C\c1ccccc1Cl`, for which the survivor count under setting [5] is 6 of 6.
Consider `CCN=C(N)c1ccc(N=C(N)c2ccc(C(N)=Nc3ccc(C(N)=NCC)cc3)cc2)cc1`, for which the survivor count (dose: 30.0 mg/kg/injection, schedule: Q01DX Z (ip), vehicle: saline) is on record as 2 of 6; the survivor count (dose: 60.0 mg/kg/injection, schedule: Q01DX Z (ip), vehicle: saline) is on record as 0 of 6; the survivor count (dose: 75.0 mg/kg/injection, schedule: Q01DX Z (oral), vehicle: saline) was 4 of 6; the survivor count (dose: 120.0 mg/kg/injection, schedule: Q01DX Z (ip), vehicle: saline) is recorded as 0 of 6.
Consider `NNc1nc2ccccc2s1`, for which the survivor count is, setting by setting: under setting [6], 3 of 6; under setting [7], 0 of 6.
Regarding `Oc1ccccc1C=Nc1ccccc1O`, the T/C (dose: 50.0 mg/kg/injection, schedule: Q04DX002 (ip), vehicle: gum acacia) is 125 % of control.
Regarding `CCCCCCCCCCCCNC=O`, the survivor count runs as follows: (dose: 50.0 mg/kg/injection, schedule: Q01DX009 (ip), vehicle: saline) 3 of 3; under setting [8], 1 of 3.
With `CN(C)/N=C/c1ccccn1`, the survivor count under setting [9] is given as 0 of 6.
Regarding `N#CCSc1ncnc2nc[nH]c12`, the T/C runs as follows: (dose: 120.0 mg/kg/injection, schedule: Q01DX010 (ip), vehicle: saline) 125 and 130 % of control; (dose: 125.0 mg/kg/injection, schedule: Q01DX Z (ip), vehicle: carboxymethylcellulose (CMC)) 141 % of control [4 of 6 alive]. In addition, the survivor count reads like this: (dose: 250.0 mg/kg/injection, schedule: Q01DX Z (ip), vehicle: carboxymethylcellulose (CMC)) 0 of 6; (dose: 500.0 mg/kg/injection, schedule: Q01DX Z (ip), vehicle: carboxymethylcellulose (CMC)) 0 of 6.
`Cc1cc(N(CCOS(C)(=O)=O)CCOS(C)(=O)=O)ccc1C=Nc1ccc(-c2nc(Cc3ccccc3)sc2C)cc1`: the T/C is, setting by setting: (dose: 25.0 mg/kg/injection, schedule: Q01DX009 (ip), vehicle: Klucel (hydroxypropylcellulose) (HPC)) 131 % of control; (dose: 50.0 mg/kg/injection, schedule: Q01DX009 (ip), vehicle: Klucel (hydroxypropylcellulose) (HPC)) 141 % of control; under setting [6], 136 % of control; (dose: 100.0 mg/kg/injection, schedule: Q04DX003 (ip), vehicle: Klucel (hydroxypropylcellulose) (HPC)) 125 and 143 % of control. Further, the survivor count (dose: 150.0 mg/kg/injection, schedule: Q04DX003 (ip), vehicle: Klucel (hydroxypropylcellulose) (HPC)) was 6 of 6; the survivor count under setting [7] was 6 of 6; the survivor count (dose: 200.0 mg/kg/injection, schedule: Q04DX003 (ip), vehicle: Klucel (hydroxypropylcellulose) (HPC)) is 6 of 6; the survivor count under setting [5] was 6 of 6; the survivor count (dose: 400.0 mg/kg/injection, schedule: Q04DX003 (ip), vehicle: Klucel (hydroxypropylcellulose) (HPC)) is given as 4 of 6.
Regarding `Cc1cc(C)c(O)c(CN(C)C)c1`, the survivor count under setting [4] is recorded as 0 of 3.
For `NC(N)=N/N=C/N1CCCCC1`, the survivor count (dose: 960.0 mg/kg/injection, schedule: Q01DX Z (ip), vehicle: methylcellulose (MC)) is 1 of 6.
For the compound `CCCCC(/C=N\NC(=O)c1ccc[n+](C)c1)CC` (configuration not stated), the survivor count under setting [8] was 0 of 3.
Take `CCOC(=O)N1C=Cn2c(cnc2C)C1OCC` (configuration not stated): under setting [9], the survivor count is given as 2 of 6.
For the compound `CCCCCCCCCCCC(=O)[O][Pb]([CH2]C)([CH2]C)[CH2]C`, the survivor count by setting is: (dose: 25.0 mg/kg/injection, schedule: Q04DX003 (ip), vehicle: saline with Tween-80) 5 of 6; under setting [3], 0 of 6; under setting [4], 0 of 6.

The values are drawn from PubChem BioAssay AID248 (DTP/NCI, 2004).
